These results are taken from PMC12903969, “Discovery of a Novel and Potent Kir4.1 Inhibitor as a Safe and Rapid‐Onset Antidepressant Agent in Mice” (Advanced Science, 2025).

Where “and” joins values, the source holds several entries; their conditions need not be identical. Identical values can stand only once. Further values from the same series stand in other lists.

This data set concerns mice. The data set is described as follows: 21-day chronic administration: body weight, organ weight, serum biochemistry. The note with it: 10 mg/kg.

In the case of `c1ccc2c(c1)oc1ccc(Nc3ccnc(NCCCN4CCOCC4)n3)cc12` [JX3212, N^4-(dibenzo[b,d]furan-2-yl)-N^2-(3-morpholinopropyl)pyrimidine-2,4-diamine], the Body weight (day 1, individual animals) is 23.6 and 25.4 (2×) and 23.7 and 24.2 and 25; the Body weight (day 2, individual animals) was 25.7 and 24.7 and 25.9 and 24.4 and 25.5 and 26.1; the Body weight (day 3, individual animals) is 24.7 and 25.4 and 24 and 23.7 and 23.6 and 26.4 and 25 and 25.8; the Body weight (day 4, individual animals) was 25.7 and 25 and 25.8 (2×) and 23.8 and 24.2; the Body weight (day 5, individual animals) was 23.8 and 26 and 24.2 (3×) and 24.7 and 25.9 and 25.5; the Body weight (day 6, individual animals) was 25.5 and 25.6 and 23.7 and 25.8 and 24.7. The Body weight by setting is: (day 10, individual animals) 26; (day 11, individual animals) 23.7 and 25.9 and 26.2 and 24.2; (day 12, individual animals) 26 (2×) and 25.5 and 24.7 and 24.3 and 25.7 and 25.4 and 26.3 and 26.5; (day 13, individual animals) 26.3 and 27 and 24.7 and 25.4 and 26.7 and 25 and 25.7 and 26.2; (day 14, individual animals) 25.8 (2×) and 25.5 and 26.9 and 26.8 and 27.4; (day 15, individual animals) 26.7 and 26.6 and 25.4 and 27.5 and 26 and 25 and 25.5 and 25.8. Also, the Body weight (day 16, individual animals) is 25.8 and 26.1 (2×) and 24.7 and 26.2 and 26.7 and 27.2 and 26.6 and 25.5; the Body weight (day 17, individual animals) was 26.4 and 26.3 and 27.1 and 25 and 26 and 26.1 and 25.5 (2×) and 26.2; the Body weight (day 18, individual animals) is 27.5 and 26.4 and 25.8 and 26.7 and 25 and 25.7 and 26; the Body weight (day 19, individual animals) was 26 and 27.4 and 26.7 and 27 and 25.6 and 25 (2×) and 25.7 (2×); the Body weight (day 20, individual animals) was 25 and 24.7 and 25.8 and 26 and 25.5 and 26.6 and 27.9 and 27.3 and 26.1; the Body weight (day 21, individual animals) is 26.9 and 26.4 and 25.8 and 25.5 and 25 and 27.5 and 26.5 (2×).
In the case of `CN(C)CCCN1c2ccccc2CCc2ccccc21` [imipramine], the Body weight reads like this: (day 1, individual animals) 25.5 and 25.1 and 25.2 and 24.5 and 24.7 (2×) and 24.9 and 23.9 and 23.5 and 25.8; (day 2, individual animals) 26.1 and 25.8 and 25.2 and 23.9 and 25.5 and 26.3 and 23.3 and 23.7 and 24.7 and 24.4; (day 3, individual animals) 26 and 25.8 and 25.5 (2×) and 24.1 and 23.8 and 25 and 23.7 and 25.3 and 25.9; (day 4, individual animals) 23.9 and 25.3 (2×) and 26.1 (2×) and 24.8 and 24.3 and 25.5 and 24 and 25.7; (day 5, individual animals) 23.9 and 25.3 (2×) and 26.1 (2×) and 24.8 and 24.3 and 25.5 and 24 and 25.7; (day 6, individual animals) 25.3 and 25.7 and 25.8 (2×) and 24.6 and 24.2 and 25.2 and 25.5 and 26 and 24.8. Further, the Body weight by setting is: (day 17, individual animals) 25.3 and 25.8 and 25.6 and 26.8 and 27.2 and 26.7 and 25.7 and 27.1 and 26.6 and 27.4; (day 18, individual animals) 25.2 and 25.5 (2×) and 26.1 and 26.7 and 26.5 and 27.3 and 26.6 and 27.2 and 25.8; (day 19, individual animals) 26.9 (2×) and 26.7 and 26.4 and 25.9 and 26.8 and 25.8 and 25.7 and 25.5 and 27.4; (day 20, individual animals) 27.7 and 26.4 (2×) and 26 and 26.3 and 25.5 and 27.4 and 27.3 and 26.6 and 25.7; (day 21, individual animals) 26.2 and 26.4 and 26.9 and 27.1 and 26.1 (3×) and 25.8 and 27.6 and 27.2.
